For test [1], the target named is LRRC8A (endogenous, vascular smooth muscle cells) (mouse (endogenous in VSMCs)) (UniProt Q80WG5). The test is described as follows: affinity purification with mass spectrometry.
Test [2] shares this target. Put plainly: affinity purification with mass spectrometry. The source holds these as a separate data set.

By UniProt entry, the sequences of proteins in these tests, tags left out.
UniProt Q80WG5: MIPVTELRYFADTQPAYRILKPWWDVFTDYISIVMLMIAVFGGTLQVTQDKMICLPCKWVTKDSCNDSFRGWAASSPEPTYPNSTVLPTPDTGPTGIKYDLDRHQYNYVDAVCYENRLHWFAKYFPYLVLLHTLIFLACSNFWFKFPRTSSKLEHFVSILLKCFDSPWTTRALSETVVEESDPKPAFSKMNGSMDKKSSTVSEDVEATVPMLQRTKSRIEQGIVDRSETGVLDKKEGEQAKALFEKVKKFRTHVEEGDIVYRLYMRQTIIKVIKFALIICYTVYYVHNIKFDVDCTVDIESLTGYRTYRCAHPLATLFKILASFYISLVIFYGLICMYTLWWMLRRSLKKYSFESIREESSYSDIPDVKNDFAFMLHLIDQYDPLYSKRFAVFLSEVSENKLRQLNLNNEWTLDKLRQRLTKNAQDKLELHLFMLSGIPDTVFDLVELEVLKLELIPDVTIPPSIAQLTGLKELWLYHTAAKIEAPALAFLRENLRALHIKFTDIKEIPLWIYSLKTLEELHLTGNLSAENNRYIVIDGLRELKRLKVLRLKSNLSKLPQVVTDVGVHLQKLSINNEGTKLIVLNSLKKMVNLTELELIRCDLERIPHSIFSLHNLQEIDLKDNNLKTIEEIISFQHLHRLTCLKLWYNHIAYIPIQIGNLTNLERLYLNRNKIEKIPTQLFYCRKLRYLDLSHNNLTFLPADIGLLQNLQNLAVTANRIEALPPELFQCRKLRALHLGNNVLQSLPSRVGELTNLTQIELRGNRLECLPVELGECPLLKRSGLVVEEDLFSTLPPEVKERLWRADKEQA
UniProt Q8BGR2: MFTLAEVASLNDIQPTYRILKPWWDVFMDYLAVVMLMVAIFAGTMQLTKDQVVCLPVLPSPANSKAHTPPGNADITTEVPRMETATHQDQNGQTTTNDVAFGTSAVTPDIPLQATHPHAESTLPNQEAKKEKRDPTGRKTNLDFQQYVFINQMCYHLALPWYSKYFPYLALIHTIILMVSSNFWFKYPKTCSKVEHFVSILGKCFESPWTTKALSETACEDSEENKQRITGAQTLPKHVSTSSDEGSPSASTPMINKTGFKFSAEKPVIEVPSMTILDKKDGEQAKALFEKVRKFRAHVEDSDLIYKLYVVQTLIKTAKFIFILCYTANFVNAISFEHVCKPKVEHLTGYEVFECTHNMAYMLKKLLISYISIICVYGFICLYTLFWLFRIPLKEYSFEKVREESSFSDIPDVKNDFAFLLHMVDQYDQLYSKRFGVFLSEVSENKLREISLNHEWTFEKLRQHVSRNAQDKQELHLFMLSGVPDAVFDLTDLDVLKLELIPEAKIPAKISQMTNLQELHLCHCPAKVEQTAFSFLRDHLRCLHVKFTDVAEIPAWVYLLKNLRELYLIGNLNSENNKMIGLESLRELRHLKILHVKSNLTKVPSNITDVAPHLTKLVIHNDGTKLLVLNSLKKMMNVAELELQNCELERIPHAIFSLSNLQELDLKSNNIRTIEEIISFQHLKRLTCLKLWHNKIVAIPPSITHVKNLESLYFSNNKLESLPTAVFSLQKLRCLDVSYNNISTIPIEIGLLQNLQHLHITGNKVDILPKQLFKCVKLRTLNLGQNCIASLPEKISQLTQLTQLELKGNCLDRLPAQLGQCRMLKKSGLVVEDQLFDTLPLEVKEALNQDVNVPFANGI
UniProt Q9WTI7: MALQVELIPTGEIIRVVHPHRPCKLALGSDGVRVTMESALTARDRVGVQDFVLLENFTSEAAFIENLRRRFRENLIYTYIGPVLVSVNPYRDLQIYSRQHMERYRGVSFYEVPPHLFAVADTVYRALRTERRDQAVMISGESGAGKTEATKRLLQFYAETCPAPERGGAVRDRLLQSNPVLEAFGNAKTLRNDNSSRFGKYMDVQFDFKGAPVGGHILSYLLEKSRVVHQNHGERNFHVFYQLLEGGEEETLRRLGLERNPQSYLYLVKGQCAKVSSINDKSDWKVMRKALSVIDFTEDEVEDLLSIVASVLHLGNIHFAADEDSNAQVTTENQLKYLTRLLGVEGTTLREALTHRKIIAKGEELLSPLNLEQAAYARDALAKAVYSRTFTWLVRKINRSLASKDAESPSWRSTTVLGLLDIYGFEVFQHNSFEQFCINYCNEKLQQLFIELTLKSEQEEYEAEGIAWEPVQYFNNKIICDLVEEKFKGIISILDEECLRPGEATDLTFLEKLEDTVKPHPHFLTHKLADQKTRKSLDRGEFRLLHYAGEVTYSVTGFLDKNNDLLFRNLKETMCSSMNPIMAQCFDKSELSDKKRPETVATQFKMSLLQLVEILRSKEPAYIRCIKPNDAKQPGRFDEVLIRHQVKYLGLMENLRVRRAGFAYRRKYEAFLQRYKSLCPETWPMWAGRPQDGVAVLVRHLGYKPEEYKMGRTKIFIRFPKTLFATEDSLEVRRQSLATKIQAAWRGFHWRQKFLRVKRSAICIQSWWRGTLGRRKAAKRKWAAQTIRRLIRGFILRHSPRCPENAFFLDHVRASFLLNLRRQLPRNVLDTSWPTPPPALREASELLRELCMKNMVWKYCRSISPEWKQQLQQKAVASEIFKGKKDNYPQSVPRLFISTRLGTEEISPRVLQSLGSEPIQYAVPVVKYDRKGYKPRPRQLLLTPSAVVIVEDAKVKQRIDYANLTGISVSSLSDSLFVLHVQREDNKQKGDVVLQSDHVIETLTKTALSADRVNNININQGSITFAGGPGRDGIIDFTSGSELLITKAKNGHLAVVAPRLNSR
UniProt P97434: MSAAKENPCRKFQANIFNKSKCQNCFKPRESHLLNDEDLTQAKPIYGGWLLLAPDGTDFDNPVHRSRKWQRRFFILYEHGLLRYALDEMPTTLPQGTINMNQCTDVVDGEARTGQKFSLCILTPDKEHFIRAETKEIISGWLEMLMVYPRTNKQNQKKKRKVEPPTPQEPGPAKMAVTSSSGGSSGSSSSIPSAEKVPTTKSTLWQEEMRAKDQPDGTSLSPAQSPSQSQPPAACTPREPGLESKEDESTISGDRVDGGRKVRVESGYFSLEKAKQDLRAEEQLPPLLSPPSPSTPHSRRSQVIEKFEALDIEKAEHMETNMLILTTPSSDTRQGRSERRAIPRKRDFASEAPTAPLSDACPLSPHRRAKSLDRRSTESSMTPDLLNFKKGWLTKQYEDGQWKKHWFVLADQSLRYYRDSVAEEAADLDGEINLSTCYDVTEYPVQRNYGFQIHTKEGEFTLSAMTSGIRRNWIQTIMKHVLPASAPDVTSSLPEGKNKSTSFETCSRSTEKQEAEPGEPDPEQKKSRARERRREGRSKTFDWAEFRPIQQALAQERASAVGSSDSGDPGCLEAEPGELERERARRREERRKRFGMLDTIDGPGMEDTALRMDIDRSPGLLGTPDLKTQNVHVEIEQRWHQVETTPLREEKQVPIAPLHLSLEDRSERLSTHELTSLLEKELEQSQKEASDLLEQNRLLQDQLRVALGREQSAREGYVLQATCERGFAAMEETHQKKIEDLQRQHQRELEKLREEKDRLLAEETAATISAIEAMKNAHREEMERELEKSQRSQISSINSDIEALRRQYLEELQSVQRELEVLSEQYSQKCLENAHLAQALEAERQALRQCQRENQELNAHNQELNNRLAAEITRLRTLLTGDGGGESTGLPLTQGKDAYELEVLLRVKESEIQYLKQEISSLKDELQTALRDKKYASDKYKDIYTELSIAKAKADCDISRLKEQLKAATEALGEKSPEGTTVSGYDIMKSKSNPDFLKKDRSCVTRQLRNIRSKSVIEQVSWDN

Consider 4 molecules from paper doi:10.1101/2023.03.08.531807.

Like-named read-outs stand apart in the source and are kept apart here. These are yes or no findings as the source states them, for the method shown. Binding seen in cells or lysates may run through a third protein. Here binding means that the protein was enriched with, or labelled near, the bait; the list need not be complete.

As to “LRRC8D (endogenous, vascular smooth muscle cells) (from UniProt Q8BGR2 1-859)”, the binding result in test [1] is “binds”.
Take “Myo1c (endogenous, vascular smooth muscle cells) (from UniProt Q9WTI7 1-1063)”: the binding entry in test [1] is listed as “binds”.
Still for that read-out and setting: the entry for “Myosin Phosphatase Rho-Interacting Protein (MPRIP), endogenous in vascular smooth muscle cells (from UniProt P97434 1-1024)” is “binds”.

B1: Myo1d (endogenous, vascular smooth muscle cells) (protein, UniProt Q5SYD0 1-1006)
chain: MAEQESLEFGKADFVLMDTVSMPEFMANLRLRFEKGRIYTFIGEVVVSVNPYKVLNIYGRDTVEQYKGRELYERPPHLFAIADAAYKAMKRRSKDTCIMISGESGAGKTEASKYIMQYIAAITNPSQRAEIERVKNMLLKSNCVLEAFGNAKTNRNDNSSRFGKYMDINFDFKGDPIGGHINNYLLEKSRVIVQQPGERSFHSFYQLLQGGSEQMLHSLHLQKSLSSYNYIRVGAQLKSSINDAAEFKVVADAMKVIGFKPEEIQTVYKILAVILHLGNLKFIVDGDTPLIENGKVVSVIAELLSTKADMVEKALLYRTVATGRDIIDKQHTEQEASYGRDAFAKAIYERLFCWIVTRINDIIEVKNYDTTIHGKNTVIGVLDIYGFEIFDNNSFEQFCINYCNEKLQQLFIQLVLKQEQEEYQREGIPWKHIDYFNNQIIVDLVEQQHKGIIAILDDACMNVGKVTDGMFLEALNSKLGKHGHFSSRKTCASDKILEFDRDFRIRHYAGDVVYSAIGFIDKNKDTLFQDFKRLMYNSSNPVLKNMWPEGKLSITEVTKRPLTAATLFKNSMIALVDNLASKEPYYVRCIKPNDKKSPQIFDDERCRHQVEYLGLLENVRVRRAGFAFRQTYEKFLHRYKMISEFTWPNHDLPSDKEAVKKLIERCGFQDDVAYGKSKIFIRTPRTLFTLEELRAQMLVRVVLFLQKVWRGTLARMRYKRTKAALTIIRYYRRYKVKSYIHEVARRFHGVKNMRDYGKHVKWPTPPKVLRRFEEALQSIFNRWRASQLIKTIPASDLPQVRAKVAAMEMLKGQRADLGLQRAWEGNYLASKPDTPQTSGTFVPVANELKRKDKYMNVLFSCHVRKVNRFSKVEDRAIFVTDRHLYKMDPTKQYKVMKTIPLYNLTGLSVSNGKDQLVVFHTKDNKDLIVCLFSKQPTHESRIGELVGVLVNHFKSEKRHLQVNVTNPVQCSLHGKKCTVSVETRLNQPQPDFTKNRSGFILSVPGN
As for B1, the binding result in test [2] is listed as “binds”.
